Measurements reported in PubChem BioAssay AID652243 (Drosophila RNAi Screening Center, 2013)
Aim: 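Fly regulators of androgen-dependent reporter output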 (primary screen). Cell system: Drosophila S2R+ cells. Reagents: long dsRNA against Drosophila genes. Timing: 72 h (48 h, then 24 h hormone). Treatment: synthetic androgen R1881 at 10 nM for 24 h. Measured: 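Firefly light from an androgen-responsive reporter and Renilla control light per well, raw and unnormalised, for each of two replicates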. Scale: firefly reporter light: higher = more light from androgen-responsive reporter; Renilla control light: higher = more constitutive control signal (cell number, transfection). Call rule: 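Hit when the log firefly-to-Renilla ratio dropped or increased by a fixed fold versus the mean of GFP or LacZ controls across duplicate plates; lowering cut given as 1.5 and as 3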. Calls: active = hit: reporter lowered or raised; inactive = no hit.
The screen tested about 24,000 reagents; this is a random part of those that have a named target and a result. Of all reagents, 246 (1%) are marked active. 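Plates not normalised; calls are printed but the firefly/Renilla ratio behind them is not deposited; fold cut for lowering reported inconsistently.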 The raw values are shown without normalisation. A number with no mark means an inactive call. Names joined by + are all predicted targets of the reagent. Reagent sequences are not shown. Not given: the amount of reagent.

| gene | amplicon | firefly reporter light, replicate 1 | firefly reporter light, replicate 2 | Renilla control light, replicate 1 | Renilla control light, replicate 2 |
| --- | --- | --- | --- | --- | --- |
| boi | DRSC18425 | 2.02e5 | 3.11e5 | 4.04e6 | 3.82e6 |
| boi | DRSC18598 | 3.58e5 | 3.65e5 | 4.37e6 | 3.40e6 |
| boi | DRSC25851 | 6.40e5 | 6.48e5 | 1.16e6 | 8.63e5 |
| Alh | DRSC12447 | 29261 | 60907 | 1.32e5 | 2.29e5 |
| Alh | DRSC12487 | 1.04e5 | 1.27e5 | 2.57e6 | 2.32e6 |
| Alh | DRSC12488 | 1.17e5 | 1.14e5 | 2.19e6 | 1.81e6 |
| Alh | DRSC28926 | 1.67e5 | 2.42e5 | 6.41e5 | 9.62e5 |
| RalGPS | DRSC06941 | 1.12e6 | 9.10e5 | 1.69e6 | 1.53e6 |
| RalGPS | DRSC27139 | 4.98e5 | 4.00e5 | 4.90e5 | 4.25e5 |
| Octbeta1R | DRSC16134 | 2.36e5 | 3.20e5 | 2.93e6 | 4.04e6 |
| Octbeta1R | DRSC30030 | 5.49e5 | 4.89e5 | 1.32e6 | 1.65e6 |
| CG17321 | DRSC02598 | 1.51e5 | 1.98e5 | 1.89e6 | 1.75e6 |
| CG17321 | DRSC25649 | 8.22e5 | 9.12e5 | 7.14e5 | 8.35e5 |
| Pglym78 | DRSC16787 | 1.35e5 | 81718 | 7.91e5 | 4.34e5 |
| Pglym78 | DRSC24626 | 3.03e5 | 3.25e5 | 3.60e5 | 3.87e5 |
| Dhfr | DRSC16646 | 2.37e5 | 1.91e5 | 2.73e6 | 2.71e6 |
| Dhfr | DRSC29019 | 7.38e5 | 5.36e5 | 1.18e6 | 1.09e6 |
| CG17440 | DRSC18126 | 2.60e5 | 2.67e5 | 2.90e6 | 3.38e6 |
| Hsp60B | DRSC00542 | 6.33e5 | 6.18e5 | 1.61e6 | 1.41e6 |
| Ktl | DRSC14270 | 84671 | 97784 | 5.49e5 | 8.39e5 |
| Ccdc56 + mtTFB1 | DRSC10809 | 6.18e5 | 6.46e5 | 1.75e6 | 1.49e6 |
| Ccdc56 + mtTFB1 | DRSC28766 | 7.10e5 | 5.68e5 | 1.22e6 | 1.06e6 |
| stet | DRSC08246 | 57973 | 95853 | 9.41e5 | 1.19e6 |
| stet | DRSC08283 | 1.13e5 | 1.89e5 | 1.53e6 | 1.60e6 |

2 successive records already listed, quoted:
| gene | amplicon | firefly reporter light, replicate 1 | firefly reporter light, replicate 2 | Renilla control light, replicate 1 | Renilla control light, replicate 2 |
| --- | --- | --- | --- | --- | --- |
| Alh | DRSC12488 | 1.17e5 | 1.14e5 | 2.19e6 | 1.81e6 |
| Alh | DRSC28926 | 1.67e5 | 2.42e5 | 6.41e5 | 9.62e5 |
